From the supplement of paper PMC12819154, “High-throughput peptide-centric local stability assay extends protein–ligand identification to membrane proteins, tissues and bacteria” (Nature Structural & Molecular Biology, 2025) come the findings set out here.

By UniProt entry, the sequences of proteins in these tests, tags left out. Where a name states a change or a piece, a line headed by the entry shows the natural chain unless it says otherwise.
UniProt O75154: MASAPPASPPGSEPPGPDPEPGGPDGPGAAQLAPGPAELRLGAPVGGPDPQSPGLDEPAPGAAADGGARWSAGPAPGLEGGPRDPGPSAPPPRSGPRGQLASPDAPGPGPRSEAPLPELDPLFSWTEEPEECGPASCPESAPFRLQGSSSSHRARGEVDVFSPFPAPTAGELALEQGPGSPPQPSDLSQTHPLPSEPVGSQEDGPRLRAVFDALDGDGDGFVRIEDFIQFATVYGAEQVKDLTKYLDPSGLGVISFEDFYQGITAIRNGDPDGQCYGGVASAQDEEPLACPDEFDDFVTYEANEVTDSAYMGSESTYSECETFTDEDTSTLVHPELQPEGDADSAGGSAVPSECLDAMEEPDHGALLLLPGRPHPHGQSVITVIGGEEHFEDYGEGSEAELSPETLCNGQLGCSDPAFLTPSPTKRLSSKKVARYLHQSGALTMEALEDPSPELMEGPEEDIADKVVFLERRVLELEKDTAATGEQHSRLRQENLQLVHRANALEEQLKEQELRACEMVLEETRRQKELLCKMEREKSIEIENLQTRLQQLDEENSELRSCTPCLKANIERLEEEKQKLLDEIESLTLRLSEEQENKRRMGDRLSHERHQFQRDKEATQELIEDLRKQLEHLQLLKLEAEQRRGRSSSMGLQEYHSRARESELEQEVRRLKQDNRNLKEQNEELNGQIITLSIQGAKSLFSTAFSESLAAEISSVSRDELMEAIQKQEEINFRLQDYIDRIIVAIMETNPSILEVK
UniProt O15446, whole entry: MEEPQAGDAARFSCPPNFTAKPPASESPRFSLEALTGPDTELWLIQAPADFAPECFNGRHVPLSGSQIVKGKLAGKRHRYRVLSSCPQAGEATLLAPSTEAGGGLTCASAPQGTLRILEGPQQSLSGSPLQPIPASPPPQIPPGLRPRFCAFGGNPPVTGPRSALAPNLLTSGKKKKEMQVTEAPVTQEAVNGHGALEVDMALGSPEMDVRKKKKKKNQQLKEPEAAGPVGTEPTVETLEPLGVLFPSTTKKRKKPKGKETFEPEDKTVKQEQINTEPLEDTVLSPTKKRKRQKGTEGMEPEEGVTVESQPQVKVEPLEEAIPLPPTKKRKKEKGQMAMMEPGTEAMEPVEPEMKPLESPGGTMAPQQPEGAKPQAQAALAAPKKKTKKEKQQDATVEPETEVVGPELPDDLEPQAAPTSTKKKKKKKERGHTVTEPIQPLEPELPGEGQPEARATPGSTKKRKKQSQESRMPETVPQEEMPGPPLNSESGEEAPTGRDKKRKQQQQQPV
UniProt O75152: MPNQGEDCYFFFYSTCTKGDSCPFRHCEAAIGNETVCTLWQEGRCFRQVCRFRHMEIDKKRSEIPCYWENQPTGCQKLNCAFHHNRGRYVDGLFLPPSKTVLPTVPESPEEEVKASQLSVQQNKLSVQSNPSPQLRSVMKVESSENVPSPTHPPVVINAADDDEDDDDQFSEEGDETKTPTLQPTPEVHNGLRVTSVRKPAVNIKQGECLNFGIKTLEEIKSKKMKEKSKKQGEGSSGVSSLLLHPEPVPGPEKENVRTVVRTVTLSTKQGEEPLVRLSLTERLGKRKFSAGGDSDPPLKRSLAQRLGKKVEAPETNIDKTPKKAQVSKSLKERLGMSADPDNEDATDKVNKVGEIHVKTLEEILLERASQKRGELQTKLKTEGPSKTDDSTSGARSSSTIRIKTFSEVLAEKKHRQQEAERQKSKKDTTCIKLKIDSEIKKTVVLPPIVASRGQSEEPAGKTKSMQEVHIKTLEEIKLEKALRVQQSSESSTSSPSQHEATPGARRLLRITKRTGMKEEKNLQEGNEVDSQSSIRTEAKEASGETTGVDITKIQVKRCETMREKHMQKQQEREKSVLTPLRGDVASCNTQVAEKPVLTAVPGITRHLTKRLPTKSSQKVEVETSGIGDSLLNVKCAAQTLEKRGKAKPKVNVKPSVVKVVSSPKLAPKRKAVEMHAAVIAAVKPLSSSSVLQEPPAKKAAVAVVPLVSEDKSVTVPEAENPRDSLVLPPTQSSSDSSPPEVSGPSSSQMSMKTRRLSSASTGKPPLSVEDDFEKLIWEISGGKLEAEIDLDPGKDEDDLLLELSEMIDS
UniProt O43172: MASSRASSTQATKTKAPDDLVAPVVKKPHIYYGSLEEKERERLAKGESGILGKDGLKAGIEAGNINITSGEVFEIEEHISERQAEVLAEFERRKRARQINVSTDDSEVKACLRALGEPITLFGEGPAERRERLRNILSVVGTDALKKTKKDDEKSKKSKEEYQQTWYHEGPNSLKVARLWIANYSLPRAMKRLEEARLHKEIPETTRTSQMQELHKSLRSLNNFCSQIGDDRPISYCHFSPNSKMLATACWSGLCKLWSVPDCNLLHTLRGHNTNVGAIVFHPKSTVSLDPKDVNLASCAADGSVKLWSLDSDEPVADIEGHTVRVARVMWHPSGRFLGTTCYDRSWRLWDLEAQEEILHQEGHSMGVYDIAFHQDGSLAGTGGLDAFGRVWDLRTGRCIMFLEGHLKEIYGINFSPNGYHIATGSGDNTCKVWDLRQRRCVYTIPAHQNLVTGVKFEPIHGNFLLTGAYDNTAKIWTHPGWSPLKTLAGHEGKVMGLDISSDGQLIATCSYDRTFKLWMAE
UniProt O43741: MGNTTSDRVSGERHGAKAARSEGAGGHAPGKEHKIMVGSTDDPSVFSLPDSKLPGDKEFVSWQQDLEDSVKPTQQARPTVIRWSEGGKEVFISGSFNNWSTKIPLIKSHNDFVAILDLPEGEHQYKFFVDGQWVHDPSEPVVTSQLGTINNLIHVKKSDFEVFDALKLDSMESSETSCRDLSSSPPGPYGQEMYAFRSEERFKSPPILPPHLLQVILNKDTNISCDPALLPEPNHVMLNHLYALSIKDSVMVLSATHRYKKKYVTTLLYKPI
UniProt O43715: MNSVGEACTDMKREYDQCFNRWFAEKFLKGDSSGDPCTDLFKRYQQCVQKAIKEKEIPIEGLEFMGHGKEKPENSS
UniProt O60645: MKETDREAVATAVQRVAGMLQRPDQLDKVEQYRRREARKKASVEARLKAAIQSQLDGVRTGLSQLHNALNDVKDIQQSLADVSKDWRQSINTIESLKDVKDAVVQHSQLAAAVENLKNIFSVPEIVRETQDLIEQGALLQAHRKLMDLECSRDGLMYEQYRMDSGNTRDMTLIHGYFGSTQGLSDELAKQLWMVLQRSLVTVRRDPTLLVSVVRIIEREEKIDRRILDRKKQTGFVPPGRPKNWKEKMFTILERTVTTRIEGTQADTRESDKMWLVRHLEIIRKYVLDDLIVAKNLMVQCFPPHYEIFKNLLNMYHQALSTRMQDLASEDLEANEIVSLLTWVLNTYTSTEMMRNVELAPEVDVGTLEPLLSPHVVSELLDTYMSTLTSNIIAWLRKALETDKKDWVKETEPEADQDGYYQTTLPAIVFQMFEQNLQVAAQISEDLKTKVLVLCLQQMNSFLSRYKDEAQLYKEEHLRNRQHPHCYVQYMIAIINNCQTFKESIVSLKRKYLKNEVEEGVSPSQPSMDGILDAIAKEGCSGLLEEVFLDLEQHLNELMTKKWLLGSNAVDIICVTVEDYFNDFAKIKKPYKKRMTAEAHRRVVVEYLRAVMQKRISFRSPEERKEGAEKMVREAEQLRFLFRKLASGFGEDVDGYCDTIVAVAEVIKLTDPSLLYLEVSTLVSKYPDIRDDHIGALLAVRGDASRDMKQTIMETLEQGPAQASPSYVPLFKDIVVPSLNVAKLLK
UniProt O43598: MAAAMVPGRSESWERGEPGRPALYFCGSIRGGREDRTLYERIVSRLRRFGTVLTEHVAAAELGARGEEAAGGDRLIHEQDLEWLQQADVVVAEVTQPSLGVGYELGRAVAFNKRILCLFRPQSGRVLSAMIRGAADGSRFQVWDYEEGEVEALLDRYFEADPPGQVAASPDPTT
UniProt O60336: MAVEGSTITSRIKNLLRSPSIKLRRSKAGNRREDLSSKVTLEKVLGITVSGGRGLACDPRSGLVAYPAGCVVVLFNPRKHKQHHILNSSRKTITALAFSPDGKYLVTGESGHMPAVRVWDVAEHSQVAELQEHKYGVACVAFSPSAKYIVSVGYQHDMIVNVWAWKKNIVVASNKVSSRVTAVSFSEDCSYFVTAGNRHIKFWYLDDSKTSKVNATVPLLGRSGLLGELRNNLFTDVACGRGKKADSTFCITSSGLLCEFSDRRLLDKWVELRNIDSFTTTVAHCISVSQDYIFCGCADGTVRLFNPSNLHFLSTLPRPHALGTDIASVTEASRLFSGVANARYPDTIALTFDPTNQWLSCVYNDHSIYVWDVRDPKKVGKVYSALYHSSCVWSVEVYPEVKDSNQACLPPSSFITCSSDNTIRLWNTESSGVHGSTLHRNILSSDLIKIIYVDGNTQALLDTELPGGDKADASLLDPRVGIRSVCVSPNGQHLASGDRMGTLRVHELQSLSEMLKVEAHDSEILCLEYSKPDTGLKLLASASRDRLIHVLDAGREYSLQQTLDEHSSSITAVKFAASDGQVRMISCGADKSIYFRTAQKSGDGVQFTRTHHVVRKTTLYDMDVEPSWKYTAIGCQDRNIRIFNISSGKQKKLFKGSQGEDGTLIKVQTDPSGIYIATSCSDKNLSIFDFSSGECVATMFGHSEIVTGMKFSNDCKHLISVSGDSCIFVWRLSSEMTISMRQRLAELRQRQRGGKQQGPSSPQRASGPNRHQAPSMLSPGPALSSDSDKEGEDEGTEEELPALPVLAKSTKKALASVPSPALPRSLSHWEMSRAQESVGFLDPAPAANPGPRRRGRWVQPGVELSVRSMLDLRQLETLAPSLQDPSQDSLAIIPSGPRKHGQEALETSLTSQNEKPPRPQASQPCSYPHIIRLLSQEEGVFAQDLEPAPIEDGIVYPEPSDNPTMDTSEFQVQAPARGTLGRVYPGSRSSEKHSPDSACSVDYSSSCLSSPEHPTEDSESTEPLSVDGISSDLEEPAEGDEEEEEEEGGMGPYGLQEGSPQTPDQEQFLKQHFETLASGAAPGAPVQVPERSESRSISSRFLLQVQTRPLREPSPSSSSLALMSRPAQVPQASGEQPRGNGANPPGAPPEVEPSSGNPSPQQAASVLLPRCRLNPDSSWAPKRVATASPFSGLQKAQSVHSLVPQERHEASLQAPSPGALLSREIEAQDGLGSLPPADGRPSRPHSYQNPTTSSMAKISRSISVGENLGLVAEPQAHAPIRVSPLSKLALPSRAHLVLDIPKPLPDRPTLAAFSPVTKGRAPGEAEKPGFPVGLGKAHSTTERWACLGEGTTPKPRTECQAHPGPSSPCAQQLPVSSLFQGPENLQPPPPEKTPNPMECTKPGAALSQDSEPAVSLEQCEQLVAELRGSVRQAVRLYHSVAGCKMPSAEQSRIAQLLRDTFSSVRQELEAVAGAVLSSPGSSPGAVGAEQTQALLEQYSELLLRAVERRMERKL
UniProt O75145: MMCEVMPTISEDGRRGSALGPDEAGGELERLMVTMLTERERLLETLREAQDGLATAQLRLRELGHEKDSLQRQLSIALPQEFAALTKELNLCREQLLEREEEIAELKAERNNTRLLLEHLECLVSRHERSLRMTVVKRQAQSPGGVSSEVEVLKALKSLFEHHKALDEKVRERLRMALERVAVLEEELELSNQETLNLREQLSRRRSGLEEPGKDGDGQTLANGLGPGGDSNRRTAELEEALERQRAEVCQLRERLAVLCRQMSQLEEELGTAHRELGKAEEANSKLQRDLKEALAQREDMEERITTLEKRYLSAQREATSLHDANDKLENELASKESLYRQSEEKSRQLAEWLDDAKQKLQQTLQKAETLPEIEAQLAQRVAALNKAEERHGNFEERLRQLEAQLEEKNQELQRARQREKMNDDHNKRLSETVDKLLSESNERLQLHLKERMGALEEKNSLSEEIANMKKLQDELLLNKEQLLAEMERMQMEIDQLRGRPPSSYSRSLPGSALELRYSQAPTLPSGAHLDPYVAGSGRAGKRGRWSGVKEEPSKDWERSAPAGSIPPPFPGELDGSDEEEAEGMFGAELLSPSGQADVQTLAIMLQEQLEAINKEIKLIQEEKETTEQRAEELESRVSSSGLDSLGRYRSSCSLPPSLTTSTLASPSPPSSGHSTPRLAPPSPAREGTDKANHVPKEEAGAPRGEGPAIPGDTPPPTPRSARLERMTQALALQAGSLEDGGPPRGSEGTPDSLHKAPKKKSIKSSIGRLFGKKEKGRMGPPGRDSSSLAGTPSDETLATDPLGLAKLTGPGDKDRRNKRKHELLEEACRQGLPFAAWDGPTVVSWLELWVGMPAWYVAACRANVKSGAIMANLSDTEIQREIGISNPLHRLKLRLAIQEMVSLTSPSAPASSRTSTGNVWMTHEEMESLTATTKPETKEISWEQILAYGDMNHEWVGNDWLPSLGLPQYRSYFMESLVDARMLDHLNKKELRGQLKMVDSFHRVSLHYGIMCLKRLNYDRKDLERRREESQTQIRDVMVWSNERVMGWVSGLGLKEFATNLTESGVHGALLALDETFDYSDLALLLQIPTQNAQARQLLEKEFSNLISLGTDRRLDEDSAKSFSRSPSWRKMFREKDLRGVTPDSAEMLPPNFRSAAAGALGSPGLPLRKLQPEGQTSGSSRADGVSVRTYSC

The other results are listed elsewhere or left out. Most entries show no effect beyond the scatter of the controls.

Compound in this assay: CN[C@@H]1C[C@H]2O[C@@](C)([C@@H]1OC)n1c3ccccc3c3c4c(c5c6ccccc6n2c5c31)C(=O)NC4 [staurosporine]
The assay can be described thus: log2 fold change of tryptic peptide abundance, ligand vs vehicle (limited proteolysis) (log2 ratio); higher = more trypsin-susceptible (destabilized). The conditions noted are these: ligand concentration: 20 uM; sample: K562 cleared lysate; digestion: 4 min, 22 C (HT-PELSA RT4min, Orbitrap Astral).
“RAB11FIP3 (peptide sequence: ACEMVLEETRR, peptide start residue: 515) (UniProt O75154)”: the log2 fold change was -0.42.

For “CD3EAP (peptide sequence: SALAPNLLTSGKK, peptide start residue: 163) (UniProt O15446)”, the log2 fold change was found to be 0.133.

As for “ZC3H11A (peptide sequence: VNVKPSVVK, peptide start residue: 651) (UniProt O75152)”, the log2 fold change is 0.218.

With “PRPF4 (peptide sequence: LHKEIPETTR, peptide start residue: 198) (UniProt O43172)”, the log2 fold change amounted to 0.89.

On to “ANKRD17 (peptide sequence: NSASVQNSSVAVLSVNHIK, peptide start residue: 2191) (UniProt O75179)”, for which the log2 fold change was -0.263.

Consider “DNAJC13 (peptide sequence: YHPDKNPEGR, peptide start residue: 1331) (UniProt O75165)”, for which the log2 fold change came to 0.213.

Turning to “PRKAB2 (peptide sequence: SEGAGGHAPGK, peptide start residue: 21) (UniProt O43741)”, the log2 fold change was -0.509.

On to “SNAP91 (peptide sequence: FIQYLASR, peptide start residue: 93) (UniProt O60641)”, for which the log2 fold change was 0.119.

For the target “MGRN1 (peptide sequence: PVQFPYVTPAPHEPVK, peptide start residue: 67) (UniProt O60291)”, the log2 fold change was determined as 0.185.

For the target “TRIAP1 (peptide sequence: EKEIPIEGLEFMGHGK, peptide start residue: 54) (UniProt O43715)”, the log2 fold change is -0.0869.

In the case of “UniProt O43303 (peptide sequence: AAEMGMPNKK, peptide start residue: 927)”, the log2 fold change amounted to 0.469.

As for “KIN (peptide sequence: KQDLDDEEK, peptide start residue: 160) (UniProt O60870)”, the log2 fold change is -0.643.

“PQBP1 (peptide sequence: SSNADAEEKLDR, peptide start residue: 94) (UniProt O60828)”: the log2 fold change was -0.0882.

“NDUFS4 (peptide sequence: NGWSYDIEER, peptide start residue: 141) (UniProt O43181)”: the log2 fold change is 0.141.

As to “NMT2 (peptide sequence: AMELLSACQGPAR, peptide start residue: 97) (UniProt O60551)”, the log2 fold change worked out at 0.282.

For “EXOC3 (peptide sequence: YKDEAQLYKEEHLR, peptide start residue: 465) (UniProt O60645)”, the log2 fold change turned out to be 0.347.

In the case of “AQR (peptide sequence: YWAPHIK, peptide start residue: 30) (UniProt O60306)”, the log2 fold change was -0.17.

For the target “UniProt O43598 (peptide sequence: ILCLFRPQSGR, peptide start residue: 115)”, the log2 fold change was determined as 0.175.

In the case of “NCK2 (peptide sequence: HQAECALNER, peptide start residue: 293) (UniProt O43639)”, the log2 fold change came out at 0.263.

Consider “UniProt O60336 (peptide sequence: KALASVPSPALPR, peptide start residue: 812)”, for which the log2 fold change was found to be 0.795.

Regarding “STRN (peptide sequence: KALPDSGEDRDTK, peptide start residue: 270) (UniProt O43815)”, the log2 fold change was -0.524.

Turning to “MED7 (peptide sequence: VMMEVQKR, peptide start residue: 137) (UniProt O43513)”, the log2 fold change turned out to be 0.362.

On to “UniProt O43151 (peptide sequence: WGGTVVAEPQQK, peptide start residue: 1746)”, for which the log2 fold change came to 0.352.

Consider “EDF1 (peptide sequence: DIGKPIEKGPR, peptide start residue: 136) (UniProt O60869)”, for which the log2 fold change was found to be 0.148.

Turning to “ZZEF1 (peptide sequence: AVDTDMIILPCLSRPAR, peptide start residue: 2536) (UniProt O43149)”, the log2 fold change was -0.231.

Turning to “PPFIA3 (peptide sequence: NSLSEEIANMKK, peptide start residue: 460) (UniProt O75145)”, the log2 fold change stood at 0.513.

For the target “DYNC1LI2 (peptide sequence: GLEYLYLSVHDEDRDDHTR, peptide start residue: 85) (UniProt O43237)”, the log2 fold change came to 0.45.
